Ends that are not written are not given here.
Assay: peptide made by a vendor
Details: whole synthesis, HPLC analysis

Substance | purity (crude or final not stated) [%]
KFAKFAKKFAKFAKKFAKFAK-NH2 | 98.1
KFAKFAKKFAKFAKKFAKFAK-QAHAGKADSDSTDAT-CONH2 | 95.6
KFAKFAKKFAKFAKKFAKFAK-QC(Acm)HC(Acm)GKC(Acm)DSDSTDC(Acm)T-CONH2 | 97.8
KFAKFAKKFAKFAKKFAKFAK-QCHCGKCDSDSTDCT-CONH2 | 95.5
KFAKFAKKFAKFAKKFAKFAK-QSHSGKSDSDSTDST-CONH2 | 95.7
KFAKFAKKFAKFAKKFAKFAK-YTRDLVYKDPARPKIQKTATF - QAHAGKADSDSTDAT-CONH2 | 97.7
KFAKFAKKFAKFAKKFAKFAK-YTRDLVYKDPARPKIQKTATF-CONH2 | 98.9
KFAKFAKKFAKFAKKFAKFAK-YTRDLVYKDPARPKIQKTC(Acm)TF - QC(Acm)HC(Acm)GKC(Acm)DSDST DC(Acm)T -CONH2 | 95.3
KFAKFAKKFAKFAKKFAKFAK-YTRDLVYKDPARPKIQKTC(Acm)TF-CONH2 | 98.5
KFAKFAKKFAKFAKKFAKFAK-YTRDLVYKDPARPKIQKTCTF-CONH2 | 95.7
KFAKFAKKFAKFAKKFAKFAK-YTRDLVYKDPARPKIQKTCTF-QCHCGKCDSDSTDCT-CONH2 | 93.8
KFAKFAKKFAKFAKKFAKFAK-YTRDLVYKDPARPKIQKTSTF- QSHSGKSDSDSTDST-CONH2 | 96.5
KFAKFAKKFAKFAKKFAKFAK-YTRDLVYKDPARPKIQKTSTF-CONH2 | 98.9

Reference: paper PMC12147355 (Molecular Medicine, 2025)
